Patent US20180319855A1, “GENETICALLY MUTATED AEQUORIN-BASED BIOSENSORS WITH EXTRA SENSITIVITY TO CALCIUM AND IMPROVED BIOLUMINESCENCE INTENSITY” (CENTRE NATIONAL DE LA RECHERCHE SCIENTIFIQUE (CNRS), priority 2015, published 2018)

Tests used:
[1] = Spectral measurement of bioluminescence emission; type: physicochemical; settings: redquorin series, CitA, GA
Description: Spectral Measurement and Analysis.
Fifteen microliter aliquot of photoprotein samples was brought in contact with 200 μl saturating calcium solution (50 mM Tris-HCl, 100 mM CaCl2, pH 7.5) in a PCR tube to induce light emission. Emitted photons were collected via an optic fiber, guided into a spectrometer (Specim), and captured by an EM-CCD camera (Andor DU-897 back illuminated). Spectral calibration was performed using laser pointers (405 and 650 nm). This home-made setup, from the lab of Prof. Philippe Brûlet, allowed immediate and synchronous spectral analysis (no scanning) of emitted luminescence with 1-nm resolution (Curie et al. 2007).

[2] = tested on: endogenous P2Y2 receptor; assay: Assay of activation of endogenous P2Y2 receptor by ATP in CHO cells stably expressing photoproteins; type: cell-based; settings: ATP at maximum and minimum response levels
Description: Stably prepared CHO cells were loaded with 5 μM coelenterazine in 130 mM NaCl, 5 mM KCl, 1 mM MgCl2, 2 mM CaCl2, 5 mM NaHCO3, 20 mM N-(2-hydroxyethyl) piperazine-N′-ethanesulfonic acid (HEPES), pH 7.4 for 4 h at ambient temperature.
To produce stable CHO cell lines, the cells transfected with GA and Redquorin variant plasmids were seeded on six-well plates and grown in the same medium with addition of Geneticin sulfate (G418) (Gibco, UK) at 1 mg/ml under the same conditions with replacement of the medium by fresh medium every 2 days. After 7-10 days of selection, CHO cells were transferred into a medium without antibiotic. To select clones with the highest bioluminescence activity, one run of limiting dilution was performed. CHO cells after G418 selection were seeded on 96-well plates (approximately 0.5 cells per well) and grown in DMEM/F12 medium supplemented with 10% fetal calf serum at 37° C., 5% CO2 for up to 80-90% confluence. Before the bioluminescence measurements, the plates with monoclones of CHO cells expressing the corresponding photoprotein were duplicated and grown for up to 90-100% confluence. Then, the medium was removed and cells were loaded with coelenterazine, and bioluminescence in each well was measured according to the procedure described earlier. As a result, the CHO cell clones with the highest bioluminescence activity were selected.
Assay of Activation of Endogenous P2Y2 Receptor in CHO Cells
The CHO cell lines stably expressing each photoprotein were used in assay of activation of endogenous P2Y2 receptor by ATP. The day before the measurements, the corresponding cells were seeded on 96-well plates with DMEM/F12 medium supplemented with 10% fetal calf serum and were grown at 37° C. with 5% CO2 for up to 90-100% confluence. Then, the medium was replaced by 100 μl of coelenterazine solution per well (5 μM coelenterazine in 130 mM NaCl, 5 mM KCl, 1 mM MgCl2, 2 mM CaCl2, 5 mM NaHCO3, 20 mM HEPES, pH7.4) and the cells were incubated at 23° C. for 4 h. Emission from photoproteins in the cells was measured using a Mithras LB 940 plate luminometer. The ATP was injected at a given concentration to trigger an intracellular Ca^2+ response in the cells and the measurement started immediately. The bioluminescence was integrated over a time interval of 0.05 s for 30 s.

Molecule | Spectral emission peak ([1]; CLZ-f) [nm] | Spectral emission peak ([1]; CLZ-native) [nm] | Z-factor [2]
Redq/QT + AD: aporedquorin mutant Q159T + A123D (SEQ ID NO:25) (protein, mutant aequorin) MVSKGEEVIKEFMRFKVRMEGSMNGHEFEIEGEGEGRPYEGTQTAKLKVTKGGPLPFAWDILSPQFMYGSKAYVKHPADIPDYKKLSFPEGFKWERVMNFEDGGLVTVTQDSSLQDGTLIYKVKMRGTNFPPDGPVMQKKTMGWEASTERLYPRDGVLKGEIHQALKLKDGGHYLVEFKTIYMAKKPVQLPGYYYVDTKLDITSHNEDYTIVEQYERSEGRHHLFLGHGTGSTGSGSSGTASSEDNNMAVIKEFMRFKVRMEGSMNGHEFEIEGEGEGRPYEGTQTAKLKVTKGGPLPFAWDILSPQFMYGSKAYVKHPADIPDYKKLSFPEGFKWERVMNFEDGGLVTVTQDSSLQDGTLIYKVKMRGTNFPPDGPVMQKKTMGWEASTERLYPRDGVLKGEIHQALKLKDGGHYLVEFKTIYMAKKPVQLPGYYYVDTKLDITSHNEDYTIVEQYERSEGRHHLFLSGFDNPRWIGRHKHMFNFLDVNHNGKISLDEMVYKASDIVINNLGATPEQAKRHKDAVEAFFGGAGMKYGVETDWPAYIEGWKKLATDELEKYAKNEPTLIRIWGDALFDIVDKDQNGDITLDEWKAYTKAAGIIQSSEDCEETFRVCDIDESGTLDVDEMTRQHLGFWYTMDPACEKLYGGAVP | 582 | 582 | 0.82
Redq/Q159T: aporedquorin (tdTomato-aequorin fusion) mutant Q159T (SEQ ID NO:22) (protein, mutant aequorin) MVSKGEEVIKEFMRFKVRMEGSMNGHEFEIEGEGEGRPYEGTQTAKLKVTKGGPLPFAWDILSPQFMYGSKAYVKHPADIPDYKKLSFPEGFKWERVMNFEDGGLVTVTQDSSLQDGTLIYKVKMRGTNFPPDGPVMQKKTMGWEASTERLYPRDGVLKGEIHQALKLKDGGHYLVEFKTIYMAKKPVQLPGYYYVDTKLDITSHNEDYTIVEQYERSEGRHHLFLGHGTGSTGSGSSGTASSEDNNMAVIKEFMRFKVRMEGSMNGHEFEIEGEGEGRPYEGTQTAKLKVTKGGPLPFAWDILSPQFMYGSKAYVKHPADIPDYKKLSFPEGFKWERVMNFEDGGLVTVTQDSSLQDGTLIYKVKMRGTNFPPDGPVMQKKTMGWEASTERLYPRDGVLKGEIHQALKLKDGGHYLVEFKTIYMAKKPVQLPGYYYVDTKLDITSHNEDYTIVEQYERSEGRHHLFLSGFDNPRWIGRHKHMFNFLDVNHNGKISLDEMVYKASDIVINNLGATPEQAKRHKDAVEAFFGGAGMKYGVETDWPAYIEGWKKLATDELEKYAKNEPTLIRIWGDALFDIVDKDQNGAITLDEWKAYTKAAGIIQSSEDCEETFRVCDIDESGTLDVDEMTRQHLGFWYTMDPACEKLYGGAVP | 582 | 582 | 0.76
Redq/Q159D: aporedquorin (tdTomato-aequorin fusion) mutant Q159D (SEQ ID NO:21) (protein, mutant aequorin) MVSKGEEVIKEFMRFKVRMEGSMNGHEFEIEGEGEGRPYEGTQTAKLKVTKGGPLPFAWDILSPQFMYGSKAYVKHPADIPDYKKLSFPEGFKWERVMNFEDGGLVTVTQDSSLQDGTLIYKVKMRGTNFPPDGPVMQKKTMGWEASTERLYPRDGVLKGEIHQALKLKDGGHYLVEFKTIYMAKKPVQLPGYYYVDTKLDITSHNEDYTIVEQYERSEGRHHLFLGHGTGSTGSGSSGTASSEDNNMAVIKEFMRFKVRMEGSMNGHEFEIEGEGEGRPYEGTQTAKLKVTKGGPLPFAWDILSPQFMYGSKAYVKHPADIPDYKKLSFPEGFKWERVMNFEDGGLVTVTQDSSLQDGTLIYKVKMRGTNFPPDGPVMQKKTMGWEASTERLYPRDGVLKGEIHQALKLKDGGHYLVEFKTIYMAKKPVQLPGYYYVDTKLDITSHNEDYTIVEQYERSEGRHHLFLSGFDNPRWIGRHKHMFNFLDVNHNGKISLDEMVYKASDIVINNLGATPEQAKRHKDAVEAFFGGAGMKYGVETDWPAYIEGWKKLATDELEKYAKNEPTLIRIWGDALFDIVDKDQNGAITLDEWKAYTKAAGIIQSSEDCEETFRVCDIDESGDLDVDEMTRQHLGFWYTMDPACEKLYGGAVP | 582 | 582 | 0.68
Redq/QD + AT: aporedquorin mutant Q159D + A179T (SEQ ID NO:23) (protein, mutant aequorin) MVSKGEEVIKEFMRFKVRMEGSMNGHEFEIEGEGEGRPYEGTQTAKLKVTKGGPLPFAWDILSPQFMYGSKAYVKHPADIPDYKKLSFPEGFKWERVMNFEDGGLVTVTQDSSLQDGTLIYKVKMRGTNFPPDGPVMQKKTMGWEASTERLYPRDGVLKGEIHQALKLKDGGHYLVEFKTIYMAKKPVQLPGYYYVDTKLDITSHNEDYTIVEQYERSEGRHHLFLGHGTGSTGSGSSGTASSEDNNMAVIKEFMRFKVRMEGSMNGHEFEIEGEGEGRPYEGTQTAKLKVTKGGPLPFAWDILSPQFMYGSKAYVKHPADIPDYKKLSFPEGFKWERVMNFEDGGLVTVTQDSSLQDGTLIYKVKMRGTNFPPDGPVMQKKTMGWEASTERLYPRDGVLKGEIHQALKLKDGGHYLVEFKTIYMAKKPVQLPGYYYVDTKLDITSHNEDYTIVEQYERSEGRHHLFLSGFDNPRWIGRHKHMFNFLDVNHNGKISLDEMVYKASDIVINNLGATPEQAKRHKDAVEAFFGGAGMKYGVETDWPAYIEGWKKLATDELEKYAKNEPTLIRIWGDALFDIVDKDQNGAITLDEWKAYTKAAGIIQSSEDCEETFRVCDIDESGDLDVDEMTRQHLGFWYTMDPTCEKLYGGAVP | 582 | 582 | 0.67
